PubChem BioAssay AID1259405 – NCATS, 2018
Purpose: 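Knock-downs that lift recombinant protein yield in hamster ovary cells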 (primary screen). System: Chinese hamster CHO-K1 ovary cells with stable secreted eGFP expression. Knock-down reagent: single siRNA against mouse genes, 0.8 pmol siRNA per well (2 µl of 400 nM stock). Duration: 3 days. Read-out: 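Percent of the per-plate non-targeting control median for intracellular GFP per well by laser scanning cytometry and for cell viability by ATP luminescence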. Reading the numbers: GFP, % of control: higher = more GFP per well, higher productivity; viability (ATP), % of control: higher = more viable cells (more ATP). Rule for the call: 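a knock-down is called active if GFP reaches 120% or more of non-targeting control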.
The whole screen tested about 50,000 reagents; shown is an unselected part. Over the whole deposit, about 4,000 (8%) got an active call. 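Mouse siRNA library applied to hamster cells; one well for each siRNA.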 A number with no mark means an inactive call. Reagents against one gene are numbered here.

Aldh3b1 (GeneID 67689) #1 → GFP, % of control: 97.7; viability (ATP), % of control: 72
Aldh3b1 (GeneID 67689) #2 → GFP, % of control: 117; viability (ATP), % of control: 93.2
Aldh3b1 (GeneID 67689) #3 → GFP, % of control: 91.1; viability (ATP), % of control: 68.4
Taar9 (GeneID 503558) #1 → GFP, % of control: 86.7; viability (ATP), % of control: 77.3
Taar9 (GeneID 503558) #2 → GFP, % of control: 83.3; viability (ATP), % of control: 86.3
Taar9 (GeneID 503558) #3 → GFP, % of control: 93.1; viability (ATP), % of control: 36.5
Slc26a7 (GeneID 208890) #1 → GFP, % of control: 70.3; viability (ATP), % of control: 65.6
Slc26a7 (GeneID 208890) #2 → GFP, % of control: 72.4; viability (ATP), % of control: 59.8
Slc26a7 (GeneID 208890) #3 → GFP, % of control: 54.5; viability (ATP), % of control: 50.5
Fam168b (GeneID 214469) #1 → GFP, % of control: 61.5; viability (ATP), % of control: 50.8
Fam168b (GeneID 214469) #2 → GFP, % of control: 97.1; viability (ATP), % of control: 66.5
Fam168b (GeneID 214469) #3 → GFP, % of control: 135 (active); viability (ATP), % of control: 119
Krabd3 (GeneID 77827) #1 → GFP, % of control: 47.4; viability (ATP), % of control: 36.3
Krabd3 (GeneID 77827) #2 → GFP, % of control: 64; viability (ATP), % of control: 73.3
Krabd3 (GeneID 77827) #3 → GFP, % of control: 98.3; viability (ATP), % of control: 91.7
Serpinb1a (GeneID 66222) #1 → GFP, % of control: 81; viability (ATP), % of control: 93.1
Serpinb1a (GeneID 66222) #2 → GFP, % of control: 50.5; viability (ATP), % of control: 68.1
Serpinb1a (GeneID 66222) #3 → GFP, % of control: 68.4; viability (ATP), % of control: 63.6
Dct (GeneID 13190) #1 → GFP, % of control: 52; viability (ATP), % of control: 80.7
Dct (GeneID 13190) #2 → GFP, % of control: 61.8; viability (ATP), % of control: 57.3
Dct (GeneID 13190) #3 → GFP, % of control: 73.3; viability (ATP), % of control: 58.1
Atp6ap1 (GeneID 54411) #1 → GFP, % of control: 28.4; viability (ATP), % of control: 44.3
Atp6ap1 (GeneID 54411) #2 → GFP, % of control: 85.5; viability (ATP), % of control: 129
Atp6ap1 (GeneID 54411) #3 → GFP, % of control: 114; viability (ATP), % of control: 129
Klc4 (GeneID 74764) #1 → GFP, % of control: 106; viability (ATP), % of control: 80
Klc4 (GeneID 74764) #2 → GFP, % of control: 91.1; viability (ATP), % of control: 84.9
Klc4 (GeneID 74764) #3 → GFP, % of control: 87.6; viability (ATP), % of control: 72.1

An excerpt taken from the entries so far:
Dct (GeneID 13190) #1 → GFP, % of control: 52; viability (ATP), % of control: 80.7
Dct (GeneID 13190) #2 → GFP, % of control: 61.8; viability (ATP), % of control: 57.3
Dct (GeneID 13190) #3 → GFP, % of control: 73.3; viability (ATP), % of control: 58.1
Atp6ap1 (GeneID 54411) #1 → GFP, % of control: 28.4; viability (ATP), % of control: 44.3
